# Measured values taken from the supplement of paper PMC8728848.
# The list shows a part of the results.
# Columns and labels:
# Assay in all cases: glycan array binding signal (z-score within array); higher = stronger binding
# Settings in all cases: glycan notation: IUPAC condensed, linker removed
# [1] = molecular target: Fuc(a1-3)GlcNAc
# In short: (§1)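 Columns mapping to the same glycan were averaged after glycan names were converted to IUPAC-condensed notation. The data come from 3228 arrays in the Consortium for Functional Glycomics database, limited to those with an available protein sequence. Binding is reported as a within-array Z-score averaged across arrays of one protein sequence and across linkers.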
# [2] = molecular target: Fuc(a1-3)[Gal(b1-4)]Glc6S
# In short: as §1
# [3] = molecular target: Fuc(a1-3)[Gal(b1-4)]GlcNAc
# In short: as §1
# [4] = molecular target: Fuc(a1-3)[Gal(b1-4)]GlcNAc(b1-2)Man
# In short: as §1
# [5] = molecular target: Fuc(a1-3)[Gal(b1-4)]GlcNAc(b1-2)Man(a1-3)[Fuc(a1-3)[Gal(b1-4)]GlcNAc(b1-2)Man(a1-6)]Man(b1-4)GlcNAc(b1-4)GlcNAc
# In short: as §1
# [6] = molecular target: Fuc(a1-3)[Gal(b1-4)]GlcNAc(b1-2)Man(a1-3)[Fuc(a1-3)[Gal(b1-4)]GlcNAc(b1-2)Man(a1-6)]Man(b1-4)GlcNAc(b1-4)[Fuc(a1-6)]GlcNAc
# In short: as §1
# [7] = molecular target: Fuc(a1-3)[Gal(b1-4)]GlcNAc(b1-3)Gal(b1-3)[Fuc(a1-4)]GlcNAc
# In short: as §1
# [8] = molecular target: Fuc(a1-3)[Gal(b1-4)]GlcNAc(b1-3)Gal(b1-4)[Fuc(a1-3)]GlcNAc
# In short: as §1
# [9] = molecular target: Fuc(a1-3)[Gal(b1-4)]GlcNAc(b1-3)Gal(b1-4)[Fuc(a1-3)]GlcNAc(b1-3)Gal(b1-4)[Fuc(a1-3)]GlcNAc
# In short: as §1
# [10] = molecular target: Fuc(a1-3)[Gal(b1-4)]GlcNAc(b1-3)GalNAc
# In short: as §1
# [11] = molecular target: Fuc(a1-3)[Gal(b1-4)]GlcNAc(b1-6)GalNAc
# In short: as §1
# [12] = molecular target: Fuc(a1-3)[Gal(b1-4)]GlcNAc(b1-6)[Gal(b1-3)GlcNAc(b1-3)]Gal(b1-4)Glc
# In short: as §1
# [13] = molecular target: Fuc(a1-3)[Gal(b1-4)]GlcNAc6S
# In short: as §1
# [14] = molecular target: Fuc(a1-3)[Gal3S(b1-4)]Glc
# In short: as §1
# [15] = molecular target: Fuc(a1-3)[Gal3S(b1-4)]GlcNAc
# In short: as §1
# [16] = molecular target: Fuc(a1-3)[Gal3S(b1-4)]GlcNAc6S
# In short: as §1
# [17] = molecular target: Fuc(a1-3)[GalNAc(b1-4)]GlcNAc
# In short: as §1
# [18] = molecular target: Fuc(a1-3)[GalNAc(b1-4)]GlcNAc6S
# In short: as §1
# [19] = molecular target: Fuc(a1-4)GlcNAc
# In short: as §1
# [20] = molecular target: Fuc(b1-3)GlcNAc
# In short: as §1
# [21] = molecular target: Gal(a1-2)Gal
# In short: as §1
# [22] = molecular target: Gal(a1-3)Gal
# In short: as §1
# [23] = molecular target: Gal(a1-3)Gal(b1-3)GlcNAc
# In short: as §1
# [24] = molecular target: Gal(a1-3)Gal(b1-3)GlcNAc(b1-2)Man
# In short: as §1
# [25] = molecular target: Gal(a1-3)Gal(b1-3)GlcNAc(b1-2)Man(a1-3)[Gal(a1-3)Gal(b1-3)GlcNAc(b1-2)Man(a1-6)]Man(b1-4)GlcNAc(b1-4)GlcNAc
# In short: as §1
# [26] = molecular target: Gal(a1-3)Gal(b1-3)GlcNAc(b1-3)GalNAc
# In short: as §1
# [27] = molecular target: Gal(a1-3)Gal(b1-3)GlcNAc(b1-6)GalNAc
# In short: as §1
# [28] = molecular target: Gal(a1-3)Gal(b1-3)[Fuc(a1-4)]GlcNAc(b1-2)Man(a1-3)[Gal(a1-3)Gal(b1-3)[Fuc(a1-4)]GlcNAc(b1-2)Man(a1-6)]Man(b1-4)GlcNAc(b1-4)GlcNAc
# In short: as §1
# [29] = molecular target: Gal(a1-3)Gal(b1-4)Glc
# In short: as §1
# [30] = molecular target: Gal(a1-3)Gal(b1-4)GlcNAc
# In short: as §1
# [31] = molecular target: Gal(a1-3)Gal(b1-4)GlcNAc(b1-2)Man
# In short: as §1
# [32] = molecular target: Gal(a1-3)Gal(b1-4)GlcNAc(b1-2)Man(a1-3)[Gal(a1-3)Gal(b1-4)GlcNAc(b1-2)Man(a1-6)]Man(b1-4)GlcNAc(b1-4)GlcNAc
# In short: as §1
# [33] = molecular target: Gal(a1-3)Gal(b1-4)GlcNAc(b1-3)GalNAc
# In short: as §1
# [34] = molecular target: Gal(a1-3)Gal(b1-4)GlcNAc(b1-6)GalNAc
# In short: as §1
# [35] = molecular target: Gal(a1-3)Gal(b1-4)[Fuc(a1-3)]GlcNAc
# In short: as §1
# [36] = molecular target: Gal(a1-3)Gal(b1-4)[Fuc(a1-3)]GlcNAc(b1-2)Man(a1-3)[Gal(a1-3)Gal(b1-4)[Fuc(a1-3)]GlcNAc(b1-2)Man(a1-6)]Man(b1-4)GlcNAc(b1-4)GlcNAc
# In short: as §1
# [37] = molecular target: Gal(a1-3)GalNAc
# In short: as §1
# [38] = molecular target: Gal(a1-3)[Gal(a1-4)]Gal(b1-4)GlcNAc
# In short: as §1
# [39] = molecular target: Gal(a1-4)Gal(b1-3)GlcNAc(b1-2)Man(a1-3)[Gal(a1-4)Gal(b1-3)GlcNAc(b1-2)Man(a1-6)]Man(b1-4)GlcNAc(b1-4)GlcNAc
# In short: as §1
# [40] = molecular target: Gal(a1-4)Gal(b1-4)Glc
# In short: as §1
# [41] = molecular target: Gal(a1-4)Gal(b1-4)GlcNAc
# In short: as §1
# [42] = molecular target: Gal(a1-4)Gal(b1-4)GlcNAc(b1-2)Man(a1-3)[Gal(a1-4)Gal(b1-4)GlcNAc(b1-2)Man(a1-6)]Man(b1-4)GlcNAc(b1-4)GlcNAc
# In short: as §1
# [43] = molecular target: Gal(a1-4)Gal(b1-4)GlcNAc(b1-3)Gal(b1-4)Glc
# In short: as §1
# [44] = molecular target: Gal(a1-4)GlcNAc
# In short: as §1
# [45] = molecular target: Gal(a1-6)Glc
# In short: as §1
binder,measurement,setting,value
Clec39 (Caenorhabditis elegans) (protein) MTSFYDNSSSSSKPVPLKTSRAQKIQILIFDNWKLILYGAISTLILVLAIMFSTLFFALPAANCDENSEPTKYYTTNAEITTTITTTNQKTTSTASSHLTTISSSATQIYSESSSSSTSQSTFTQSPPEISTTTIAPSDFSCQHGFTLVNNKCWKLVTSNQARPDADKICNGYGGATLFSIKSEQDNRAMIHFVKGQDIDFLWSGLLCSAGEPISCIWDIENGSTANYSNFADGFPNIVYGNCVYFITSGDEAGQWGNEQCGQVMNFVCELPATFQGKDGCKNNYEKSCYLRFDLNLTVPQAQNFCLEKCANLVSIHSANEVRFIMTIYDFIGEILIGALAPAQDFIYWLDGTPANYNNLKFFYNSTCVHMTVAPGMQNVGKWFTRFCTETGKFLCKRSIKNSCT,glycan array binding signal (z-score),[1],-1.1
same,glycan array binding signal (z-score),[2],-0.794
same,glycan array binding signal (z-score),[3],-0.574
same,glycan array binding signal (z-score),[4],-0.391
same,glycan array binding signal (z-score),[5],-0.109
same,glycan array binding signal (z-score),[6],4.38
same,glycan array binding signal (z-score),[7],-0.807
same,glycan array binding signal (z-score),[8],-0.131
same,glycan array binding signal (z-score),[9],0.41
same,glycan array binding signal (z-score),[10],0.908
same,glycan array binding signal (z-score),[11],0.7
same,glycan array binding signal (z-score),[12],-1.38
same,glycan array binding signal (z-score),[13],-0.848
same,glycan array binding signal (z-score),[14],0.025
same,glycan array binding signal (z-score),[15],-0.816
same,glycan array binding signal (z-score),[16],-0.835
same,glycan array binding signal (z-score),[17],-0.638
same,glycan array binding signal (z-score),[18],-1.31
same,glycan array binding signal (z-score),[19],-0.161
same,glycan array binding signal (z-score),[20],-0.031
same,glycan array binding signal (z-score),[21],-0.318
same,glycan array binding signal (z-score),[22],0.358
same,glycan array binding signal (z-score),[23],0.07
same,glycan array binding signal (z-score),[24],-1.08
same,glycan array binding signal (z-score),[25],1.29
same,glycan array binding signal (z-score),[26],-0.178
same,glycan array binding signal (z-score),[27],-0.374
same,glycan array binding signal (z-score),[28],1.11
same,glycan array binding signal (z-score),[29],-0.683
same,glycan array binding signal (z-score),[30],0.408
same,glycan array binding signal (z-score),[31],-0.329
same,glycan array binding signal (z-score),[32],0.493
same,glycan array binding signal (z-score),[33],-1.04
same,glycan array binding signal (z-score),[34],-1.28
same,glycan array binding signal (z-score),[35],-0.664
same,glycan array binding signal (z-score),[36],1.5
same,glycan array binding signal (z-score),[37],-0.307
same,glycan array binding signal (z-score),[38],-0.164
same,glycan array binding signal (z-score),[39],-0.183
same,glycan array binding signal (z-score),[40],-1.72
same,glycan array binding signal (z-score),[41],-0.405
same,glycan array binding signal (z-score),[42],0.105
same,glycan array binding signal (z-score),[43],-0.562
same,glycan array binding signal (z-score),[44],-0.759
same,glycan array binding signal (z-score),[45],-0.393

# Part of the list above, with tabs:
binder	measurement	setting	value
Clec39 (Caenorhabditis elegans) (protein) MTSFYDNSSSSSKPVPLKTSRAQKIQILIFDNWKLILYGAISTLILVLAIMFSTLFFALPAANCDENSEPTKYYTTNAEITTTITTTNQKTTSTASSHLTTISSSATQIYSESSSSSTSQSTFTQSPPEISTTTIAPSDFSCQHGFTLVNNKCWKLVTSNQARPDADKICNGYGGATLFSIKSEQDNRAMIHFVKGQDIDFLWSGLLCSAGEPISCIWDIENGSTANYSNFADGFPNIVYGNCVYFITSGDEAGQWGNEQCGQVMNFVCELPATFQGKDGCKNNYEKSCYLRFDLNLTVPQAQNFCLEKCANLVSIHSANEVRFIMTIYDFIGEILIGALAPAQDFIYWLDGTPANYNNLKFFYNSTCVHMTVAPGMQNVGKWFTRFCTETGKFLCKRSIKNSCT	glycan array binding signal (z-score)	[3]	-0.574
same	glycan array binding signal (z-score)	[19]	-0.161
same	glycan array binding signal (z-score)	[28]	1.11
